Here are results for one molecule from PMC5481773, “Structural insights into the function of ZRANB3 in replication stress response” (Nature Communications, 2017).

Chains of the proteins cited; added tags and fusions are not shown.
UniProt P12004: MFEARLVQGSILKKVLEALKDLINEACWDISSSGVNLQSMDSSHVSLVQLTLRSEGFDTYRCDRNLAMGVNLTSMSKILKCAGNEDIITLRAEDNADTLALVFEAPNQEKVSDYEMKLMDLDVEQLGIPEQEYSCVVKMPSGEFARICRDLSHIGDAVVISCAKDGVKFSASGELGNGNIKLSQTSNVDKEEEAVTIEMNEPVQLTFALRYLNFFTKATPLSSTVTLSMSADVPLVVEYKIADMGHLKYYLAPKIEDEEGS

The assay deals with Proliferating Cell Nuclear Antigen (PCNA), untagged (human) (UniProt P12004). Description: crystal structure; co-crystals of PCNA and the PIP peptide 511-532; conditions not stated; both purified.

These are yes or no findings as the source states them, for the method shown. Some results given as binding are weak or reduced against the parent protein; the word gives no strength.

Regarding FTHFEKEKQHDIRSFFVPQPKK [ZRANB3 PIP box peptide 511-532], the binding result is recorded as “binds”.
